Measurements reported in publication PMC3750045, “Human RNase H1 Is Associated with Protein P32 and Is Involved in Mitochondrial Pre-rRNA Processing” (PLoS ONE, 2013).
These are yes or no findings as the source states them, for the method shown. In cells and extracts the contact can be indirect. A yes stands for co-enrichment or nearness to the bait. Other partners may have been found. For some of these results: No binding means not detected with the bait. For some of these results: Tags and fused reporters may be left off the sequences shown.

Sequences of proteins named here, by UniProt entry; tags and fusion partners are left off. Residues count along the entry.
UniProt O75792: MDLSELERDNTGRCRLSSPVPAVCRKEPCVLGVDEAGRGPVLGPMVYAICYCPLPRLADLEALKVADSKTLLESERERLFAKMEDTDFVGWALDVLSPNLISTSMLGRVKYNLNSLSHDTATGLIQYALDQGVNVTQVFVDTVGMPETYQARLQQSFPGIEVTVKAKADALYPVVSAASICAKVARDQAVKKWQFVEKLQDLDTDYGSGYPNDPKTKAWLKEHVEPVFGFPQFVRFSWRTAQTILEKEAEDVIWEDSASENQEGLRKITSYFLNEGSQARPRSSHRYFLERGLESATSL
UniProt Q07021, residues 74-282: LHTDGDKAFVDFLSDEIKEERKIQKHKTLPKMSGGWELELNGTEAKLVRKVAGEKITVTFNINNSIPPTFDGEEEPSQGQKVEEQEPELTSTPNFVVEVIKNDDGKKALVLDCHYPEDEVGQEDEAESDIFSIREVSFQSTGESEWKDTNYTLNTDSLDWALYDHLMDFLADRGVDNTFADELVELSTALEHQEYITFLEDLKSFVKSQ

Tests used:
[1] = target: T1, N-terminal Flag-tagged human RNase H1 (human) (UniProt O60930); assay: affinity purification with mass spectrometry; anti-flag beads on about 5 mg lysate of Flag-H1 or Flag-H2 stable lines; RIPA washes; DIGE CyDye labelling, 2D gel electrophoresis, spots identified by mass spectrometry
T1 sequence: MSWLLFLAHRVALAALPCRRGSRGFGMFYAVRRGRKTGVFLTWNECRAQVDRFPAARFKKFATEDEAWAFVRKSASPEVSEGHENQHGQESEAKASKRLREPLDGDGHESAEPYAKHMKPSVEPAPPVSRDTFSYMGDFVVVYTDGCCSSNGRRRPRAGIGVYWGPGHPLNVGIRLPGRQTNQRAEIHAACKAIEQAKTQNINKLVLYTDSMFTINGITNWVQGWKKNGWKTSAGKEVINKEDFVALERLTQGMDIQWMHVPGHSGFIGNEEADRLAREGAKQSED

[2] = target: T2, C-terminal HA-tagged human RNase H1 (human) (UniProt O60930); assay: affinity purification with mass spectrometry; anti-Flag or anti-HA beads on extracts of HEK lines stably expressing Flag-H1, Flag-H2 or HA-H1; washed four times with RIPA buffer; SDS-PAGE, silver staining, band excised and identified by mass spectrometry
T2 sequence: T1 sequence

[3] = target: T1, N-terminal Flag-tagged human RNase H1 (human); assay: as above
[4] = target: N-terminal Flag-tagged human RNase H2 (human) (UniProt O75792); assay: as above

Substance: P32 (endogenous mitochondrial protein P32) (from UniProt Q07021 74-282)
- binding [1]: binds
- binding [2]: binds
- binding [3]: binds
- binding [4]: no binding
